The other results are listed elsewhere or left out. Repeats in this data set agree poorly, so a single value says little.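 Human kidney-derived cells stably carry a construct in which eight TEAD-binding elements drive luciferase, measured by luminescence in a drug-repurposing library screen. A hit is any compound whose signal exceeds the plate mean by more than five robust Z scores.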
Tested on: HEK293A TEAD-LUC reporter
Experiment: TEAD-luciferase reporter activity (YAP activation), robust Z score vs plate; higher = stronger YAP/TEAD activation
Conditions: 24 h

O=P(O)(O)C(Cc1ccccn1)P(=O)(O)O [piridronate sodium]
TEAD-luciferase reporter activity (compound concentration: 200 nM): inactive: -0.656 | TEAD-luciferase reporter activity (compound concentration: 10 uM): inactive: 0.521

CCN(C/C=C/C#CC(C)(C)C)Cc1cccc(OCC(C)(C)OCc2ccsc2)c1
TEAD-luciferase reporter activity (compound concentration: 200 nM): inactive: -0.298 | TEAD-luciferase reporter activity (compound concentration: 2 uM): inactive: 2.97 | TEAD-luciferase reporter activity (compound concentration: 10 uM): inactive: -0.703

CC(C)Nc1ncccn1 [isaxonine]
TEAD-luciferase reporter activity (compound concentration: 200 nM): inactive: -0.576 | TEAD-luciferase reporter activity (compound concentration: 2 uM): inactive: -1.68 | TEAD-luciferase reporter activity (compound concentration: 10 uM): inactive: -0.582

CC(C)[C@@H](CS(=O)(=O)C(C)C)N1C(=O)[C@@](C)(CC(=O)O)C[C@H](c2cccc(Cl)c2)[C@H]1c1ccc(Cl)cc1
TEAD-luciferase reporter activity (compound concentration: 200 nM): inactive: -1.15 | TEAD-luciferase reporter activity (compound concentration: 2 uM): inactive: -0.582 | TEAD-luciferase reporter activity (compound concentration: 10 uM): inactive: 2.7

CCCCCC[N+](C)(C)Cc1ccccc1
TEAD-luciferase reporter activity (compound concentration: 200 nM): inactive: -1.51 | TEAD-luciferase reporter activity (compound concentration: 2 uM): inactive: 0.0519 | TEAD-luciferase reporter activity (compound concentration: 10 uM): inactive: -0.982

Cc1cc(N)c2cc(NC(=O)Nc3ccc4nc(C)cc(N)c4c3)ccc2n1
TEAD-luciferase reporter activity (compound concentration: 200 nM): inactive: -1.03 | TEAD-luciferase reporter activity (compound concentration: 2 uM): inactive: 3.24 | TEAD-luciferase reporter activity (compound concentration: 10 uM): inactive: 1.7

C=C1CCO[C@]12CC[C@H]1C3CCC4=CC(=O)CCC4=C3[C@@H](c3ccc(C(C)=O)cc3)C[C@@]12C (some centres undefined)
TEAD-luciferase reporter activity (compound concentration: 200 nM): inactive: 4.33 | TEAD-luciferase reporter activity (compound concentration: 2 uM): inactive: 1.83 | TEAD-luciferase reporter activity (compound concentration: 10 uM): inactive: 0.00851

CN(CC(=O)c1ccc(OCC(=O)O)c(OCC(=O)O)c1)C(=O)c1ccc(C(=N)N)cc1
TEAD-luciferase reporter activity (compound concentration: 200 nM): inactive: -1.14 | TEAD-luciferase reporter activity (compound concentration: 2 uM): inactive: 0.366 | TEAD-luciferase reporter activity (compound concentration: 10 uM): inactive: 1.72

Cn1ncc(Cl)c1-c1cc(C(=O)N[C@H](CN)Cc2ccc(F)c(F)c2)oc1Cl [Uprosertib]
TEAD-luciferase reporter activity (compound concentration: 200 nM): inactive: -1.7 | TEAD-luciferase reporter activity (compound concentration: 2 uM): active: 5 | TEAD-luciferase reporter activity (compound concentration: 10 uM): active: 6.28

Cc1nc(C)c2c(n1)N(Cc1ccc(-c3ccccc3-c3nn[nH]n3)cc1)C(=O)CC2 [tasosartan]
TEAD-luciferase reporter activity (compound concentration: 200 nM): inactive: -0.0118 | TEAD-luciferase reporter activity (compound concentration: 2 uM): inactive: 0.256 | TEAD-luciferase reporter activity (compound concentration: 10 uM): inactive: 0.479

CCCCCCCCCCCCN1CCCCCC1=O [Laurocapram]
TEAD-luciferase reporter activity (compound concentration: 200 nM): inactive: 0.215 | TEAD-luciferase reporter activity (compound concentration: 2 uM): inactive: 0.768 | TEAD-luciferase reporter activity (compound concentration: 10 uM): inactive: -0.521

CCCCc1nc2cccnc2n1Cc1ccc(-c2ccccc2-c2nnn[nH]2)cc1
TEAD-luciferase reporter activity (compound concentration: 200 nM): inactive: -0.786 | TEAD-luciferase reporter activity (compound concentration: 2 uM): inactive: -1.51 | TEAD-luciferase reporter activity (compound concentration: 10 uM): inactive: 0.221

CC(C)OP(=O)(OC(C)C)C(Cc1cc(C(C)(C)C)c(O)c(C(C)(C)C)c1)P(=O)(OC(C)C)OC(C)C [Apomine]
TEAD-luciferase reporter activity (compound concentration: 2 uM): inactive: 1.46

CC(C)OP(=O)(OC(C)C)C(Cc1cc(C(C)(C)C)c(O)c(C(C)(C)C)c1)P(=O)(OC(C)C)OC(C)C
TEAD-luciferase reporter activity (compound concentration: 200 nM): inactive: -0.635 | TEAD-luciferase reporter activity (compound concentration: 10 uM): inactive: 0.103

O=C(c1ccc2c(c1)OCO2)N1CCC(N2CCOC2=O)CC1
TEAD-luciferase reporter activity (compound concentration: 200 nM): inactive: -0.551 | TEAD-luciferase reporter activity (compound concentration: 10 uM): inactive: 1.78

Cc1ccccc1C(=O)Nc1ccc(C(=O)N2CCCC(N(C)C)c3ccccc32)cc1 (centres undefined) [mozavaptan]
TEAD-luciferase reporter activity (compound concentration: 200 nM): inactive: -0.225 | TEAD-luciferase reporter activity (compound concentration: 2 uM): inactive: -0.549 | TEAD-luciferase reporter activity (compound concentration: 10 uM): inactive: -0.753

CC1c2cccc(O)c2C(=O)C2=C(O)C3(O)C(=O)C(C(N)=O)=C(O)C(N(C)C)C3C(O)C21 (centres undefined) [doxycycline, MiddleBrook]
TEAD-luciferase reporter activity (compound concentration: 200 nM): inactive: -1.33 | TEAD-luciferase reporter activity (compound concentration: 2 uM): inactive: 0.245 | TEAD-luciferase reporter activity (compound concentration: 10 uM): inactive: -1.3

O=C(O)C1Cc2c(c(Cl)cc3c(-c4ccccc4)noc23)O1 (centres undefined)
TEAD-luciferase reporter activity (compound concentration: 200 nM): inactive: 1.3 | TEAD-luciferase reporter activity (compound concentration: 2 uM): inactive: -0.393 | TEAD-luciferase reporter activity (compound concentration: 10 uM): inactive: 3.49

CC(C)c1ccc(CN2CCN(C(c3ccc(F)cc3)c3ccc(F)cc3)CC2)c(=O)c(NCCO)c1
TEAD-luciferase reporter activity (compound concentration: 200 nM): inactive: -1.09 | TEAD-luciferase reporter activity (compound concentration: 2 uM): inactive: -1.62 | TEAD-luciferase reporter activity (compound concentration: 10 uM): inactive: 0.0853

COc1ccc2c(c1)c(CC(=O)Oc1ccc(NC(C)=O)cc1)c(C)n2C(=O)c1ccc(Cl)cc1
TEAD-luciferase reporter activity (compound concentration: 200 nM): inactive: -1.89 | TEAD-luciferase reporter activity (compound concentration: 2 uM): inactive: 0.139 | TEAD-luciferase reporter activity (compound concentration: 10 uM): inactive: -0.708

CC1CC2Oc3ccc(Cl)cc3C(=O)N2O1 (centres undefined)
TEAD-luciferase reporter activity (compound concentration: 200 nM): inactive: -0.823 | TEAD-luciferase reporter activity (compound concentration: 2 uM): inactive: 0.633 | TEAD-luciferase reporter activity (compound concentration: 10 uM): inactive: -0.263

N#C/C(=C1/SCC(c2ccccc2Cl)S1)n1ccnc1 (centres undefined) [lanoconazole]
TEAD-luciferase reporter activity (compound concentration: 200 nM): inactive: -1.12 | TEAD-luciferase reporter activity (compound concentration: 2 uM): inactive: -2.39 | TEAD-luciferase reporter activity (compound concentration: 10 uM): inactive: 0.241

CC(=O)N1Cc2ccccc2OC2(CCN(C(=O)Cc3ccc(O)cc3)CC2)C1
TEAD-luciferase reporter activity (compound concentration: 200 nM): inactive: -1.06 | TEAD-luciferase reporter activity (compound concentration: 10 uM): inactive: -0.14

COc1cc(CC(=O)NN(c2ccc(Cc3ccccc3)cc2)c2c(C)cccc2N2CCCCC2)c(Br)cc1C(=O)O
TEAD-luciferase reporter activity (compound concentration: 200 nM): inactive: -0.711 | TEAD-luciferase reporter activity (compound concentration: 2 uM): inactive: 0.307 | TEAD-luciferase reporter activity (compound concentration: 10 uM): inactive: -0.0754

F[C@H]1C[C@](c2ccc(Cl)cc2)(c2nnc(C3CC3)n2C2CC2)C1
TEAD-luciferase reporter activity (compound concentration: 200 nM): inactive: 0.977 | TEAD-luciferase reporter activity (compound concentration: 2 uM): inactive: 0.0603 | TEAD-luciferase reporter activity (compound concentration: 10 uM): inactive: -0.697

O=c1[nH]c(=O)c2ccccc2o1
TEAD-luciferase reporter activity (compound concentration: 200 nM): inactive: -0.96 | TEAD-luciferase reporter activity (compound concentration: 2 uM): inactive: -2.19 | TEAD-luciferase reporter activity (compound concentration: 10 uM): inactive: -0.307

OC[C@H]1O[C@@H](n2cnc3c(N[C@H]4CCC[C@@H]4O)ncnc32)[C@H](O)[C@@H]1O
TEAD-luciferase reporter activity (compound concentration: 200 nM): inactive: -1.05 | TEAD-luciferase reporter activity (compound concentration: 2 uM): inactive: -1.68 | TEAD-luciferase reporter activity (compound concentration: 10 uM): inactive: 3.2

CCCCCOC(=O)Nc1nc(=O)n([C@@H]2O[C@H](C)[C@@H](O)[C@H]2O)cc1F [capecitabine]
TEAD-luciferase reporter activity (compound concentration: 2 uM): inactive: -1.62

CCCCCOC(=O)Nc1nc(=O)n([C@@H]2O[C@H](C)[C@@H](O)[C@H]2O)cc1F [Capecitabine]
TEAD-luciferase reporter activity (compound concentration: 200 nM): inactive: 0.177 | TEAD-luciferase reporter activity (compound concentration: 10 uM): inactive: -0.567

CN1C(=O)CC[C@]2(C)[C@H]3CC[C@]4(C)[C@@H](C(=O)O)CC[C@H]4[C@@H]3CC[C@@H]12
TEAD-luciferase reporter activity (compound concentration: 200 nM): inactive: -0.42 | TEAD-luciferase reporter activity (compound concentration: 2 uM): inactive: 0.24 | TEAD-luciferase reporter activity (compound concentration: 10 uM): inactive: -0.345

CC1(C)S[C@@H]2[C@H](N3C(=O)[C@@H](c4ccccc4)NC3(C)C)C(=O)N2[C@H]1C(=O)O
TEAD-luciferase reporter activity (compound concentration: 200 nM): inactive: 1.09 | TEAD-luciferase reporter activity (compound concentration: 2 uM): inactive: -0.113 | TEAD-luciferase reporter activity (compound concentration: 10 uM): inactive: -0.686

C=CC(N)CCC(=O)O (centres undefined) [vigabatrin]
TEAD-luciferase reporter activity (compound concentration: 200 nM): inactive: 3.73 | TEAD-luciferase reporter activity (compound concentration: 2 uM): active: 5.46 | TEAD-luciferase reporter activity (compound concentration: 10 uM): inactive: -1.05

CCOC(=O)C(C)NC(=O)c1cccc(N(Cc2cccnc2)c2ccc(OC)c(OC3CCCC3)c2)c1 (centres undefined)
TEAD-luciferase reporter activity (compound concentration: 200 nM): inactive: 2.16 | TEAD-luciferase reporter activity (compound concentration: 2 uM): inactive: -1.27 | TEAD-luciferase reporter activity (compound concentration: 10 uM): inactive: -0.593

O=C(NCCCn1ncccc1=O)C1COc2ccccc2O1 (centres undefined)
TEAD-luciferase reporter activity (compound concentration: 200 nM): inactive: 0.291 | TEAD-luciferase reporter activity (compound concentration: 2 uM): inactive: 0.127 | TEAD-luciferase reporter activity (compound concentration: 10 uM): inactive: -2.66

CN(C)CCOC(C)(c1ccccc1)c1ccc(Cl)cc1 (centres undefined)
TEAD-luciferase reporter activity (compound concentration: 200 nM): inactive: -0.278 | TEAD-luciferase reporter activity (compound concentration: 2 uM): inactive: 0.579 | TEAD-luciferase reporter activity (compound concentration: 10 uM): inactive: -0.556

O=C(O)Cc1ccccc1Nc1c(Cl)cccc1Cl [diclofenac gel]
TEAD-luciferase reporter activity (compound concentration: 2 uM): inactive: -1.83

O=C(O)Cc1ccccc1Nc1c(Cl)cccc1Cl
TEAD-luciferase reporter activity (compound concentration: 200 nM): inactive: -0.545 | TEAD-luciferase reporter activity (compound concentration: 10 uM): inactive: -0.695

From the supplement of paper PMC10735217
